# Experimental data: PubChem BioAssay (NCATS)
# This is one part of the list. These are further read-outs of the screen, such as a control signal, another cell line or another target. No call is given for them. The list favours compounds with an active or inconclusive main result. The note in brackets gives the kind of curve behind each potency; many fits are weak.
# Assay: S16 Schwann cell PMP22 intronic element beta-lactamase assay (AID 624044)
# Details: S16 rat Schwann cells, PMP22 element beta-lactamase FRET, 24 h; measured here: 530 nm viability channel
# Procedure, shortened: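 Beta-lactamase reporter under a PMP22 intronic regulatory element in stable S16 rat Schwann cells; 24 h compound exposure. 460 nm blue signal normalized between DMSO (0%) and potassium clavulanate, with 535 nm FRET tracking viability; curves classed by r2 and response.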
row,Compound,AC50
1,C[S+](CC[C@H](N)C(=O)O)C[C@H]1O[C@@H](n2cnc3c(N)ncnc32)[C@H](O)[C@@H]1O (stereo not given in full),"2 µM [falling, full curve]"
2,Clc1cc(Cl)c(OCC#CI)cc1Cl,"2.51 µM [falling, full curve, poor fit]"
3,COC(=O)[C@H]1[C@H]2C[C@@H]3c4[nH]c5ccccc5c4CCN3C[C@H]2C[C@@H](OC(=O)c2cc(OC)c(OC)c(OC)c2)[C@@H]1OC,"0.224 µM [rising, full curve]"
4,COc1cc(/C=C2\CCC/C(=C\c3ccc(O)c(OC)c3)C2=O)ccc1O,"28.2 µM [rising, single point]"
5,Cc1c(C)c2c(c(C)c1OC(=O)CCC(=O)O)CC[C@@](C)(CCC[C@H](C)CCC[C@H](C)CCCC(C)C)O2,"25.1 µM [rising, single point]"
6,CC(C)C[C@@H](NC(=O)[C@H](Cc1ccccc1)NC(=O)c1cnccn1)B(O)O,"0.0112 µM [rising, full curve]"
7,COC(C(=O)C(O)C(C)O)C1Cc2cc3cc(OC4CC(OC5CC(O)C(O)C(C)O5)C(O)C(C)O4)c(C)c(O)c3c(O)c2C(=O)C1OC1CC(OC2CC(OC3CC(C)(O)C(O)C(C)O3)C(O)C(C)O2)C(O)C(C)O1 (stereo not given),"17.8 µM [rising, partial curve]"
8,CCCCCCC(O)C/C=C/CCCCCCCC(=O)O (stereo not given),"1.41 µM [falling, full curve, poor fit]"
9,O=C(O)CCC(=O)Nc1ccc(S(=O)(=O)Nc2nccs2)cc1,"12.6 µM [falling, single point]"
10,COc1ccc([C@@H]2CC(=O)c3c(O)cc(O[C@H]4O[C@@H](CO[C@H]5O[C@@H](C)[C@@H](O)[C@@H](O)[C@@H]5O)[C@@H](O)[C@@H](O)[C@@H]4O)cc3O2)cc1O,"0.00631 µM [falling, full curve, poor fit]"
11,CCN(CC)CCNC(=O)c1cc(S(C)(=O)=O)ccc1OC,"0.501 µM [falling, full curve]"
12,O=C1c2ccccc2C(=O)C1c1ccccc1,"11.2 µM [falling, single point]"
13,CN1CCC[C@@H]1Cc1c[nH]c2ccc(CCS(=O)(=O)c3ccccc3)cc12,"1.12 µM [falling, full curve]"
14,C[C@H]1[C@H](NC(=O)/C(=N/OC(C)(C)C(=O)O)c2csc(N)n2)C(=O)N1S(=O)(=O)O (stereo in doubt),"1.26 µM [falling, partial curve]"
15,CC(CSC(=O)c1ccccc1)C(=O)N1C[C@@H](Sc2ccccc2)C[C@H]1C(=O)O (stereo not given in full),"1.78 µM [falling, full curve, poor fit]"

# A second format for some results above:
row | Compound | AC50
12 | O=C1c2ccccc2C(=O)C1c1ccccc1 | 11.2 µM [falling, single point]
13 | CN1CCC[C@@H]1Cc1c[nH]c2ccc(CCS(=O)(=O)c3ccccc3)cc12 | 1.12 µM [falling, full curve]
14 | C[C@H]1[C@H](NC(=O)/C(=N/OC(C)(C)C(=O)O)c2csc(N)n2)C(=O)N1S(=O)(=O)O (stereo in doubt) | 1.26 µM [falling, partial curve]
